{"source": "patent US9988627B2", "about": "“Formats for organic compounds for use in RNA interference” (NOVARTIS AG, priority 2013, dated 2018)", "tested_on": "FVII (Factor VII)", "assay": "RNA interference of 3′-capped mF7-III siRNAs against FVII (FIG. 2)", "format": "cell-based, mouse", "settings": "19-mer blunt-ended mF7-III siRNA, A12S17", "note": "At least one compound was matched to its structure with a doubt left.", "data": [{"smiles": "C[C@H](CCC(=O)O)[C@H]1CC[C@H]2[C@@H]3CC[C@@H]4C[C@H](O)CC[C@]4(C)[C@H]3CC[C@]12C", "note": "[Lithocholic acid, lithocholic acid]", "values": [{"measurement": "ability to mediate RNA interference", "value": "allow the RNAi agent to perform RNA interference"}]}]}
